The assay deals with nAChR in rat neonatal skeletal muscle cell membranes (rat (endogenous in primary skeletal muscle cells of neonatal rats)) (UniProt P25108). The assay is described as follows: radioligand binding; […]; 20 mM Tris-HCl pH 7.4, 10 mM EDTA, 150 mM NaCl, 0.2 mg/mL BSA; […]; only the binder purified.

The chains behind the UniProt entries cited, without tags or fusion partners. Where a name states a change or a piece, a line headed by the entry shows the natural chain unless it says otherwise. Residues count along the entry.
UniProt P25108: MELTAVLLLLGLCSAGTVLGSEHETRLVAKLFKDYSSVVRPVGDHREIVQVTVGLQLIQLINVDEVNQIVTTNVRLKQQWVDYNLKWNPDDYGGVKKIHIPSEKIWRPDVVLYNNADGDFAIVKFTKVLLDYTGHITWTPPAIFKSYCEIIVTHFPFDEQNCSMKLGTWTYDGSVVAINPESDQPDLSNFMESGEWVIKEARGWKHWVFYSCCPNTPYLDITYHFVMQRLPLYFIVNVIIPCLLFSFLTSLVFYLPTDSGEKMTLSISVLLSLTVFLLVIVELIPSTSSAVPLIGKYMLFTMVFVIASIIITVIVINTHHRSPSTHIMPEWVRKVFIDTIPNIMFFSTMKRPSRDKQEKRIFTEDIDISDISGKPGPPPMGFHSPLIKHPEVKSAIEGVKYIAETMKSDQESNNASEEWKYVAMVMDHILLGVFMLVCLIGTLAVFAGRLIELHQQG
UniProt P60615, residues 22-95: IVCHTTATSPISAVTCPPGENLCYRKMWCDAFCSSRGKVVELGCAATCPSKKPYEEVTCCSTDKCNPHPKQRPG

The text below walks through data of article PMC11054780.

No constants are given. Whether binding was seen depends on the method and setting. Some results given as binding are weak or reduced against the parent protein; the word gives no strength.

With “α-Bungarotoxin (from UniProt P60615 22-95)”, the binding entry is “binds”.
